Data on one molecule can be found in US5047431A, “1,1,2-triphenylbut-1-ene derivatives” (Klinge Pharma GmbH & Co., priority 1980, dated 1991).

In general, IC50 refers to the concentration that gives 50% inhibition. A lower IC50 goes with higher potency.

In the assay the target is T1, estradiol receptor (Oryctolagus cuniculus, UniProt G1SML6).
T1 construct: The uterus cytosol of female, prepuberal white rabbits; from tissue; host or cells: uterus cytosol of female prepuberal New Zealand white rabbits
T1 sequence (G1SML6 1-598): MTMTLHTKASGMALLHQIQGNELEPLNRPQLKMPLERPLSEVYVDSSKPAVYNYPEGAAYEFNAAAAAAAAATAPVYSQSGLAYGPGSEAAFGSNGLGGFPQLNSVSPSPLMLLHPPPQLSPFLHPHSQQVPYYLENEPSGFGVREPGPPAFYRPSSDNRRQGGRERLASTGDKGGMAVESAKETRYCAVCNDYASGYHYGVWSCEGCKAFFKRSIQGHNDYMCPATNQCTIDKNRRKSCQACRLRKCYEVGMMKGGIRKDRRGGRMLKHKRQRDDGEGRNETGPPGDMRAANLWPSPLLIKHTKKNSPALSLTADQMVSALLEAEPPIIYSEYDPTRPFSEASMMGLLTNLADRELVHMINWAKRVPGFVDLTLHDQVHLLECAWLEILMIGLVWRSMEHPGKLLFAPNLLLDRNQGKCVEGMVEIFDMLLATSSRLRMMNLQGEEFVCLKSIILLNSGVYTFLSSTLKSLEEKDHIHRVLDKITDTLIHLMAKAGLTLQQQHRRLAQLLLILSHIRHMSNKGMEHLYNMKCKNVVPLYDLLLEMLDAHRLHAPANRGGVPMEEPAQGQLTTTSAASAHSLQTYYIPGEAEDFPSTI
Nature of the assay: Binding affinity to the estradiol receptor (displacement of [3H]-estradiol from uterus cytosol). The arrangement: species or system rabbit (New Zealand rabbits). The method, then:
The determination of the binding affinity to the estradiol receptor was made using rabbit uterus cytosol.
The binding affinity to the estradiol receptor was measured according to the method of N. Devleeschouwer, G. Leclercq, A. Danguy and J.C. Heuson [Europ.
H]-estradiol from the estradiol receptor.

Take `CC/C(=C(\c1ccccc1)c1ccc(OCCN(C)C)cc1)c1ccccc1` [Tamoxifen, (Z)-1-[4'-(2-dimethylaminoethoxy)phenyl]-1,2-diphenylbut-1-ene]: the IC50 stood at 0.38 µM. This counts as sub-micromolar.
